Laboratory results from patent US20030162190.
Construct, isoform or probe ends are uncertain for at least one entry.

Chains of the proteins cited; added tags and fusions are not shown. Chains listed by the source or under a name are the forms on record and can include a tag or linker.
c-Rel homodimer, one chain, as listed by the source: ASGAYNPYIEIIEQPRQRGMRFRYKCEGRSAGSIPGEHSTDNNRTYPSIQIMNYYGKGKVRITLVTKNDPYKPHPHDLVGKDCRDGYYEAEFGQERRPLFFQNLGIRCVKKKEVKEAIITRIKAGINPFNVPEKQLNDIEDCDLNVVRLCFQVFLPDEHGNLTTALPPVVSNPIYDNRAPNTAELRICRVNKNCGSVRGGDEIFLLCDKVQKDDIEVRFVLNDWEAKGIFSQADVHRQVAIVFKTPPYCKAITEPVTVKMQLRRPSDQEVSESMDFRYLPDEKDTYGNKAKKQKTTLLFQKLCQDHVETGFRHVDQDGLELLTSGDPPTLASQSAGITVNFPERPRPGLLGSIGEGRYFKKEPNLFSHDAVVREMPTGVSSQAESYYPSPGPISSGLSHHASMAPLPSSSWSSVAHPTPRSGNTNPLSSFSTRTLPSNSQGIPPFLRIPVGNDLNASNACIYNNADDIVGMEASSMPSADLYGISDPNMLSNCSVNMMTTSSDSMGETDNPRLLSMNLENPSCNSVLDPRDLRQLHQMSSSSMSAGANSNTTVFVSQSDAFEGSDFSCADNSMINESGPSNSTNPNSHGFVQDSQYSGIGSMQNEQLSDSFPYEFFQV

System: c-Rel homodimer
Assay: EMSA
Conditions: purified recombinant protein

| Sequence | binding result (behaved similarly to CK-1, variant of CK-1 phosphodiester duplex) | binding result |
| --- | --- | --- |
| CCAGGAGATTCCAC (double strand) [CK-14 phosphodiester duplex] | binds |  |
| CCAGGAGATTCCACCCAGGAGATTCCACCCAGGAGATTCCAC (double strand) [CK-1 phosphodiester duplex] |  | binds |
